These are yes or no findings as the source states them, for the method shown. In cells and extracts the contact can be indirect. Here binding means that the protein was enriched with, or labelled near, the bait; the list need not be complete. No binding means not detected with the bait.

The chains behind the UniProt entries cited, without tags or fusion partners. Residues count along the entry.
UniProt P35613, residues 22-385: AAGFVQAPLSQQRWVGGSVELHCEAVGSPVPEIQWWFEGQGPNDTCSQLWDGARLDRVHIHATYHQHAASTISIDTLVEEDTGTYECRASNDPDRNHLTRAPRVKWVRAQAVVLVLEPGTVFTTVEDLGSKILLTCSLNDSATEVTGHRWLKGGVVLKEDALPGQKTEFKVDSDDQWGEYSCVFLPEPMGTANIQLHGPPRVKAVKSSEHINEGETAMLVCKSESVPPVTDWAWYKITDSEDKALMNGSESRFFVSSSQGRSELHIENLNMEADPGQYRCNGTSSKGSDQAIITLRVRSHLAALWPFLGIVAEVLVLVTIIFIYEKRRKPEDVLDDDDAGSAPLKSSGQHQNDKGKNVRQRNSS
UniProt Q9NZZ3: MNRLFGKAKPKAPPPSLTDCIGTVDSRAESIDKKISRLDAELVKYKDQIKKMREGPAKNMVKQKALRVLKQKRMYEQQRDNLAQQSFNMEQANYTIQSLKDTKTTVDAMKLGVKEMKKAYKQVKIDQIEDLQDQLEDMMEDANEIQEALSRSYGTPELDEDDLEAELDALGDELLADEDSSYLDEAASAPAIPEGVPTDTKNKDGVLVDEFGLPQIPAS
UniProt P27361: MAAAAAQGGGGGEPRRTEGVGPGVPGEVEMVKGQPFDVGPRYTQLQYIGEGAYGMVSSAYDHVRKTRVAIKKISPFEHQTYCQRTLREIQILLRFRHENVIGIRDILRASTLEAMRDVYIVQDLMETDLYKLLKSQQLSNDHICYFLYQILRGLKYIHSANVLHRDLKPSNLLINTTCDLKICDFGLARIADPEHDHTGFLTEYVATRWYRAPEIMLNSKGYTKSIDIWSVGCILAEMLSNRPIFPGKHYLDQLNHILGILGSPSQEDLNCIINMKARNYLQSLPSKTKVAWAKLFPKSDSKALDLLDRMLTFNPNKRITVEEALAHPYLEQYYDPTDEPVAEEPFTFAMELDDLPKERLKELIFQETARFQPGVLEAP
UniProt O14745: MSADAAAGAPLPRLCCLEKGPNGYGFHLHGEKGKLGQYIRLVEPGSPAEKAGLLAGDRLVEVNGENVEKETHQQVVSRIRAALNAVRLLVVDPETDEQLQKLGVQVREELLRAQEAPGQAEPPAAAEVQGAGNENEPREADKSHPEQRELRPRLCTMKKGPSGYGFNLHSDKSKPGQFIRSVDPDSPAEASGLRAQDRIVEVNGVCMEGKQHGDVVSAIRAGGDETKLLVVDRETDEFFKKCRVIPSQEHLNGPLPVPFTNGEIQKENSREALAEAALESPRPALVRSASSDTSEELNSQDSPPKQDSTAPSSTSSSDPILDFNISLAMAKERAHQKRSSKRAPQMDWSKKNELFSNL
UniProt Q9UMY4: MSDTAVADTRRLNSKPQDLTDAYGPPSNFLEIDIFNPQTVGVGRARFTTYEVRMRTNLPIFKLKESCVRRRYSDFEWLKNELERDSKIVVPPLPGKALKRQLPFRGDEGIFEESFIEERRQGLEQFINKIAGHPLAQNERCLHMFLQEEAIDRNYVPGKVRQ
UniProt Q8N9U0: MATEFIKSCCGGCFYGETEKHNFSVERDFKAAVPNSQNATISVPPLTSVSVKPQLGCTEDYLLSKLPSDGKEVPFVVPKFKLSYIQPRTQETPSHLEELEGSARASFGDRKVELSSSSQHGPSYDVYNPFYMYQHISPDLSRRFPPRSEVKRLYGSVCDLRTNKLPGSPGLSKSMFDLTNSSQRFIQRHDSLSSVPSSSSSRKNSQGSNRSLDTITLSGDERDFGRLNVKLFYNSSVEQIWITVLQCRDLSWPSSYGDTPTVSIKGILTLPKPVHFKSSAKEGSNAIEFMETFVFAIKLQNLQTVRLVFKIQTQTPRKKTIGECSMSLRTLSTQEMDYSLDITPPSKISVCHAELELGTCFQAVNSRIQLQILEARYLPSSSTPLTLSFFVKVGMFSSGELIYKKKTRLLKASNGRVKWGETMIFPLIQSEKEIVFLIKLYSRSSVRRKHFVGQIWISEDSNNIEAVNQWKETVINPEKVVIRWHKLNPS
UniProt P31749: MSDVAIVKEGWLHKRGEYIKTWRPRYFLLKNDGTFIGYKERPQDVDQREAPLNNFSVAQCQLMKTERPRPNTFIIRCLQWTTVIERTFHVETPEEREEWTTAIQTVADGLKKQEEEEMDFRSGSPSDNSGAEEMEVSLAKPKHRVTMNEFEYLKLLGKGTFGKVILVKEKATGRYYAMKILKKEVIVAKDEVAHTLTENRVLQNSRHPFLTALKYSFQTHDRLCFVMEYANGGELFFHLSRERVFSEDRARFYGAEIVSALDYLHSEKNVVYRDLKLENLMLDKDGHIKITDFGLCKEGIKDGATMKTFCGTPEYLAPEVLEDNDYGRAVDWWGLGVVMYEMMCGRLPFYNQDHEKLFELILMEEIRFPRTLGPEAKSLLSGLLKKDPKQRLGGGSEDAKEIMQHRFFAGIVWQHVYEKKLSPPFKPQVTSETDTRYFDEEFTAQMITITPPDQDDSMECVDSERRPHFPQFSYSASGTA
UniProt O15031, residues 20-1838: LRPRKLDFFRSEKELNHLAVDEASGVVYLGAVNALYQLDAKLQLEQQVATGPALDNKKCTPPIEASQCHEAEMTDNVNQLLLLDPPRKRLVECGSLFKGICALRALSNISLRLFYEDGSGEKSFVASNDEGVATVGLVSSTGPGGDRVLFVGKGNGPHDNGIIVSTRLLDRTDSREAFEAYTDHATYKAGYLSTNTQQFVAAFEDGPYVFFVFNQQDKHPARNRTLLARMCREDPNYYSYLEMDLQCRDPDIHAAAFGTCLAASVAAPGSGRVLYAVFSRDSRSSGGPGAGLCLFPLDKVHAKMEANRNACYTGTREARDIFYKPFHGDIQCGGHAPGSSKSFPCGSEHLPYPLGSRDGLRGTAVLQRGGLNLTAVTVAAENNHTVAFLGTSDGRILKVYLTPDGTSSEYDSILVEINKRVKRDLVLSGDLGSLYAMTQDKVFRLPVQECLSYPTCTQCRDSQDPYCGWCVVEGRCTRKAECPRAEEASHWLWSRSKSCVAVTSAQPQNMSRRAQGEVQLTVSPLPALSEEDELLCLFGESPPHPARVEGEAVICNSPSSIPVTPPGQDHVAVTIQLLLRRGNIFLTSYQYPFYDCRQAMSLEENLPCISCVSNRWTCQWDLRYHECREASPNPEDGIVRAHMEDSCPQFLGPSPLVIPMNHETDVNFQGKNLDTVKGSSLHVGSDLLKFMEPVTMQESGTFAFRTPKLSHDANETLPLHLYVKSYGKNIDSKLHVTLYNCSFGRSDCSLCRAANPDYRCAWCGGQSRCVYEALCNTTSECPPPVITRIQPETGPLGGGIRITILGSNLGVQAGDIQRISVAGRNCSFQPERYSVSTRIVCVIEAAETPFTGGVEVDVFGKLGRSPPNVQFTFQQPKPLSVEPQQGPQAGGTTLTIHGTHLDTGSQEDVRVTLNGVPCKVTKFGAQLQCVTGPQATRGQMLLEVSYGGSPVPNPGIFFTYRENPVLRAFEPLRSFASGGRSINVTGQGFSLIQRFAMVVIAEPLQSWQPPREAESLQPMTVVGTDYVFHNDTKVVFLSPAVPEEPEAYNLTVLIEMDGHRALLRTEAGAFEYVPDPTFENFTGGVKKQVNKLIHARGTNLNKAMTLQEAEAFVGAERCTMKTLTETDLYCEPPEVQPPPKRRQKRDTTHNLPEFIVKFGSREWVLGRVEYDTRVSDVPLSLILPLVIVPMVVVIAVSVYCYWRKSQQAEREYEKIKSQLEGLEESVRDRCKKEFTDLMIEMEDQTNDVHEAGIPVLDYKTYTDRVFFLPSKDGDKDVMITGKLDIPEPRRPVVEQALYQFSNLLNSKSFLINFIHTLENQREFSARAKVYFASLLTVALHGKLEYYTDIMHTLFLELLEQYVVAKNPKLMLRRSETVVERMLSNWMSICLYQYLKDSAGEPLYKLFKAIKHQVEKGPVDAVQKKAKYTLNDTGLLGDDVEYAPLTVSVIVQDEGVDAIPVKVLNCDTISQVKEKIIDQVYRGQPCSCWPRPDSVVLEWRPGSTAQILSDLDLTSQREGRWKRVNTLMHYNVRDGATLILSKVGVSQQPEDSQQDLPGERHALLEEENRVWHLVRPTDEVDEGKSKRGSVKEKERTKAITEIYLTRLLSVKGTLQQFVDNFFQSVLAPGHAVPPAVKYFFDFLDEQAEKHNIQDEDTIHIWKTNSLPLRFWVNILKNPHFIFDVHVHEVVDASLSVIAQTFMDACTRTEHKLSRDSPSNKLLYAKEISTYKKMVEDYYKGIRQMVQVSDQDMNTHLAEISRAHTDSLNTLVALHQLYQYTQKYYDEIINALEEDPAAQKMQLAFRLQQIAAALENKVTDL
UniProt P31751: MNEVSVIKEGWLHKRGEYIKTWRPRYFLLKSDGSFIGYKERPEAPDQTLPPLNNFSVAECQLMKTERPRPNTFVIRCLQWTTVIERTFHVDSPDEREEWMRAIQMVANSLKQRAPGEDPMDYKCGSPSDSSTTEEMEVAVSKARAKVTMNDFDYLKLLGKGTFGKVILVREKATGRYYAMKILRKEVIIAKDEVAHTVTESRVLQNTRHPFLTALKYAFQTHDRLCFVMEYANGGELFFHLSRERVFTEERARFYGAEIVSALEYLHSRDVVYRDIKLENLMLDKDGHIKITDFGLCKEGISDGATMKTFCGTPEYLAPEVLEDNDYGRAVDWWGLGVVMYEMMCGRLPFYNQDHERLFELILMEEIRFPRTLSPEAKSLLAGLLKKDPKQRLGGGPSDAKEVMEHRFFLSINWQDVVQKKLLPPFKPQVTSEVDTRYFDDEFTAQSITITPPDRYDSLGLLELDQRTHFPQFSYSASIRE
UniProt Q8TAD4: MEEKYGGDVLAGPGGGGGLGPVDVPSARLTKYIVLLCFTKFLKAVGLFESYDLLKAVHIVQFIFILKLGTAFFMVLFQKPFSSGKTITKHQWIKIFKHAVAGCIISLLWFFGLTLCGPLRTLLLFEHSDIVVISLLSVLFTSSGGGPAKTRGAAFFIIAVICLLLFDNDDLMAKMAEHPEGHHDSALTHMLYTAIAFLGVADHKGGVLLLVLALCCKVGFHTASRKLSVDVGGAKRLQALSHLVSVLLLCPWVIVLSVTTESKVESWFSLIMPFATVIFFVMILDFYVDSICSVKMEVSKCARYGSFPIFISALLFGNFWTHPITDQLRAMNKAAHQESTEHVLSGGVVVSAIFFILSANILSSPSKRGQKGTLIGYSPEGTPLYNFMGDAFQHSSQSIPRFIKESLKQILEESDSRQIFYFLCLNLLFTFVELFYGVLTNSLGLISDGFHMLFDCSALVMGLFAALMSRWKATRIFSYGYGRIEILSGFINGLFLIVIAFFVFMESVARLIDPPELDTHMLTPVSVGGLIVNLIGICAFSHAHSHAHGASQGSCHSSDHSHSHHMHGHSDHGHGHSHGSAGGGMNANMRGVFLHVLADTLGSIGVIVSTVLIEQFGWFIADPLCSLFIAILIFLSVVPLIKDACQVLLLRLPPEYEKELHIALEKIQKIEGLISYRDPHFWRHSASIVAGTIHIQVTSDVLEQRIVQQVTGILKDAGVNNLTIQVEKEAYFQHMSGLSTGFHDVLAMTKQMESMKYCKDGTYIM
UniProt Q96K37: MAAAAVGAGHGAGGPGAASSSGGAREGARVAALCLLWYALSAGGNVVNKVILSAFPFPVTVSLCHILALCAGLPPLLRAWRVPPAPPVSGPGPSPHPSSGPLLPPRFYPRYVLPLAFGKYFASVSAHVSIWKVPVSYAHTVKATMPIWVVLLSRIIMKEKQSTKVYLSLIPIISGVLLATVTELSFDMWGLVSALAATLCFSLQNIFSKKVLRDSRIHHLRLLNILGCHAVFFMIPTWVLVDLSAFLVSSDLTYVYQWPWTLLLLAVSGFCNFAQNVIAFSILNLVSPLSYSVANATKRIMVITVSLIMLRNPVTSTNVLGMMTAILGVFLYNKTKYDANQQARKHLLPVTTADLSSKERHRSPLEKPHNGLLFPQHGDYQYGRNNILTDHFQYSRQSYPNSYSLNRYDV
UniProt Q8IUH5: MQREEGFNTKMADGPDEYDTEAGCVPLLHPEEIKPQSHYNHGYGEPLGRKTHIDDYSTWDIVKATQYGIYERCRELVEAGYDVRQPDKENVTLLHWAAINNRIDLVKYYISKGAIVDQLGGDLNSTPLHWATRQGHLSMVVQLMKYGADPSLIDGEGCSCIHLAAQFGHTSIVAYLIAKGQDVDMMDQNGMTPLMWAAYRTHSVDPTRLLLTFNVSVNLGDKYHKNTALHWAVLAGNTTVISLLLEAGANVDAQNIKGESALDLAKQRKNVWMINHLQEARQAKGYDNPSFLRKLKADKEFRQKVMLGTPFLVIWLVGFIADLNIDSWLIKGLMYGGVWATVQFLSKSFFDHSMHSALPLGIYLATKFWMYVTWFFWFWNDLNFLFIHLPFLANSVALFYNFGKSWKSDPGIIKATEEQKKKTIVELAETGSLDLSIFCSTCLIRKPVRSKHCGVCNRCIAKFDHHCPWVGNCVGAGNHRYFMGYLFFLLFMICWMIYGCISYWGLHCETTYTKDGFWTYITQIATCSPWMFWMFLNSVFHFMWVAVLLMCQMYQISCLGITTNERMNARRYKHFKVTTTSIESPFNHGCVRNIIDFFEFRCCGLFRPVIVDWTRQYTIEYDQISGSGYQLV

The first experiment has as its target FlagBirA*-HRAS (human) (UniProt P01112). The experiment is described as follows: proximity labelling; BioID: FlagBirA*-RAS bait in Flp-In T-REx 293 cells, 1 µg/mL tetracycline and 50 µM biotin for 24 h; modified RIPA lysis, Streptavidin Sepharose capture, trypsin, LC-MS/MS; hits at SAINT score ≥ 0.75; labelling radius ~10 nm.
ANXA2 (from UniProt P07355 1-339): the binding result is recorded as “binds”.
On the same count and under the same terms, with B2M (from UniProt P61769 21-119) the entry was “binds”.
The same measure, in the same setting: with BSG (from UniProt P35613 22-385) the entry was “binds”; with BTN3A1 (from UniProt O00481 30-513), “binds”.
As to CHMP5 (from UniProt Q9NZZ3 1-219), the binding entry is on record as “binds”.
The same measure, in the same setting: with DYNLL1 (from UniProt P63167 1-89) the entry was “binds”; with MAPK3 (from UniProt P27361 1-379), “no binding”; with RAB11FIP2 (from UniProt Q7L804 1-512), “binds”.
Turning to RAB21 (from UniProt Q9UL25 1-225), the binding result is recorded as “binds”.
RAP2A (from UniProt P10114 1-183): the binding entry is on record as “binds”.
Same read-out and setting: then SEC61A1 (from UniProt P61619 1-476), with “binds”.
On the same count and under the same terms, with SLC9A3R1 (from UniProt O14745 1-358) the entry was “binds”.
SNX3 (from UniProt O60493 1-162): the binding entry is “binds”.
As for SNX12 (from UniProt Q9UMY4 1-162), the binding entry is “binds”.
The same measure, in the same setting: then STXBP1 (from UniProt P61764 1-594), with “binds”.
Still for that read-out and setting: then TC2N (from UniProt Q8N9U0 1-490), with “binds”.
Take VAMP2 (from UniProt P63027 1-116): the binding result is recorded as “binds”.
The same measure, in the same setting: with radixin (from UniProt P35241 1-583) the entry was “binds”.

A further experiment concerns the target FlagBirA*-KRAS4B (human) (UniProt P01116). The experiment is described as above.
For the substance AKT1 (from UniProt P31749 1-480), the binding entry is “binds”.
For MAPK1 (from UniProt P28482 1-360), the binding entry is recorded as “no binding”.
Still for that read-out and setting: then MAPK3 (from UniProt P27361 1-379), with “no binding”; and PLXNB2 (from UniProt O15031 20-1838), with “binds”.
RALGAPA1 (from UniProt Q6GYQ0 1-2036): the binding result was “binds”.

The next experiment deals with FlagBirA*-NRAS (human) (UniProt P01111). The description is as above.
On to AKT2 (from UniProt P31751 1-481), for which the binding result was “binds”.
Same read-out and setting: then ANK3 (from UniProt Q12955 1-4377), with “binds”.
With CNKSR3 (from UniProt Q6P9H4 1-555), the binding entry is “binds”.
Still for that read-out and setting: then MAPK1 (from UniProt P28482 1-360), with “no binding”; and MAPK3 (from UniProt P27361 1-379), with “no binding”.
Still for that read-out and setting: then SHKBP1 (from UniProt Q8TBC3 1-707), with “binds”; and SLC25A1 (from UniProt P53007 14-311), with “binds”; and SLC30A5 (from UniProt Q8TAD4 1-765), with “binds”.
On the same count and under the same terms, with SLC30A6 (from UniProt Q6NXT4 1-461) the entry was “binds”; with SLC35E1 (from UniProt Q96K37 1-410), “binds”; with ZDHHC17 (from UniProt Q8IUH5 1-632), “binds”.
For “glucose transporter 1 (from UniProt P11166 1-492)”, the binding entry is recorded as “binds”.

The record behind these values is PMC7696408.
